# Source: PubChem BioAssay AID248 (DTP/NCI, 2004)
# The list shows only some results of the screen, not a fair sample: it gathers tests that were run many times, whatever their T/C, doses with no T/C, and many T/C values between a quarter and a half above the control. Other doses and runs of a compound stand elsewhere. T/C: endpoint of the treated group in % of that of the vehicle group. Some entries give survivors of the animals treated and no T/C: the source files T/C as zero there, which appears to mark a toxic dose or a test without result, not a measured value. Some doses without a T/C left all or most animals alive at the check, yet need not have been tolerated: survival well below the control is almost never listed, so the zero probably covers shortened survival too. Survivors were counted at the toxicity check, usually on the fifth day, unless a day is given; later deaths do not show. Schedules are NCI's codes, taken here to give the interval after Q, in days (D) or hours (H), and the number of doses after X. Some doses were run more than once; the results are listed from low to high. Some schedules carry Z or #; the key to these is not given. Some structures stand for samples that the source files as different forms (salt, stereo form or complex); doses refer to the form tested. For survival time, this PubChem deposit counts one and a half times the control or more as active, and values a quarter to a half above the control carry no call in these data; other NCI protocols may use other cut-offs.
# System: L1210 leukemia ip in BDF1 mice, survival T/C
# Assay: NCI In Vivo Anticancer Drug Screen. Data for tumor model L1210 Leukemia (intraperitoneal) in B6D2F1 (BDF1) mice
# Settings: higher T/C = longer survival
# [1] = T/C endpoint: mean survival time, dose: 100.0 mg/kg/injection, schedule: Q01DX001 (ip), vehicle: saline
# [2] = T/C endpoint: mean survival time, dose: 200.0 mg/kg/injection, schedule: Q01DX001 (ip), vehicle: saline
# [3] = T/C endpoint: mean survival time, dose: 200.0 mg/kg/injection, schedule: Q04DX003 (ip), vehicle: Klucel (hydroxypropylcellulose) (HPC)
# [4] = T/C endpoint: mean survival time, dose: 400.0 mg/kg/injection, schedule: Q01DX001 (ip), vehicle: saline
# [5] = T/C endpoint: mean survival time, dose: 400.0 mg/kg/injection, schedule: Q04DX003 (ip), vehicle: Klucel (hydroxypropylcellulose) (HPC)
# [6] = T/C endpoint: mean survival time, dose: 100.0 mg/kg/injection, schedule: Q04DX002 (ip), vehicle: saline with Tween-80
# [7] = T/C endpoint: mean survival time, dose: 200.0 mg/kg/injection, schedule: Q04DX002 (ip), vehicle: saline with Tween-80
# [8] = T/C endpoint: mean survival time, dose: 400.0 mg/kg/injection, schedule: Q04DX002 (ip), vehicle: saline with Tween-80
# [9] = T/C endpoint: mean survival time, dose: 200.0 mg/kg/injection, schedule: Q01DX009 (ip), vehicle: Klucel (hydroxypropylcellulose) (HPC)
# [10] = T/C endpoint: mean survival time, dose: 200.0 mg/kg/injection, schedule: Q01DX001 (ip), vehicle: saline with Tween-80
# [11] = T/C endpoint: mean survival time, dose: 300.0 mg/kg/injection, schedule: Q01DX001 (ip), vehicle: saline
# [12] = T/C endpoint: mean survival time, dose: 100.0 mg/kg/injection, schedule: Q04DX003 (ip), vehicle: saline with Tween-80
# [13] = T/C endpoint: mean survival time, dose: 200.0 mg/kg/injection, schedule: Q04DX003 (ip), vehicle: saline with Tween-80
# [14] = T/C endpoint: mean survival time, dose: 400.0 mg/kg/injection, schedule: Q04DX003 (ip), vehicle: saline with Tween-80
compound,measurement,setting,value
COC1C(NC(=O)N(CCCl)N=O)C(OC(C)=O)OC(COC(C)=O)C1OC(C)=O (configuration not stated),T/C,"T/C endpoint: mean survival time, dose: 1.8 mg/kg/injection, schedule: Q01DX001 (ip), vehicle: saline with Tween-80",135 % of control
same,T/C,"T/C endpoint: mean survival time, dose: 2.6 mg/kg/injection, schedule: Q01DX001 (ip), vehicle: saline with Tween-80",141 % of control
same,T/C,"T/C endpoint: mean survival time, dose: 4.0 mg/kg/injection, schedule: Q01DX001 (ip), vehicle: saline with Tween-80",137 % of control
same,survivor count,"T/C endpoint: mean survival time, dose: 30.0 mg/kg/injection, schedule: Q01DX001 (ip), vehicle: saline with Tween-80",9 of 10
same,survivor count,"T/C endpoint: mean survival time, dose: 45.0 mg/kg/injection, schedule: Q01DX001 (ip), vehicle: saline with Tween-80",5 of 10 and 6 of 10
same,survivor count,"T/C endpoint: mean survival time, dose: 67.0 mg/kg/injection, schedule: Q01DX001 (ip), vehicle: saline with Tween-80",7 of 10 and 10 of 10
CCCCCCCCCCCCCCCC[N+](C)(C)C,survivor count,"T/C endpoint: mean survival time, dose: 8.0 mg/kg/injection, schedule: Q01DX015 (ip), vehicle: saline",1 of 6
same,survivor count,"T/C endpoint: mean survival time, dose: 8.75 mg/kg/injection, schedule: Q01DX009 (ip), vehicle: saline",2 of 6
same,survivor count,"T/C endpoint: mean survival time, dose: 15.0 mg/kg/injection, schedule: Q04DX003 (ip), vehicle: saline",3 of 6
same,survivor count,"T/C endpoint: mean survival time, dose: 16.0 mg/kg/injection, schedule: Q01DX015 (ip), vehicle: saline",0 of 6
same,survivor count,"T/C endpoint: mean survival time, dose: 17.0 mg/kg/injection, schedule: Q01DX009 (ip), vehicle: saline",5 of 6
same,survivor count,"T/C endpoint: mean survival time, dose: 17.5 mg/kg/injection, schedule: Q01DX009 (ip), vehicle: saline",1 of 6
same,survivor count,"T/C endpoint: mean survival time, dose: 25.0 mg/kg/injection, schedule: Q01DX009 (ip), vehicle: saline",1 of 6
same,survivor count,"T/C endpoint: mean survival time, dose: 30.0 mg/kg/injection, schedule: Q04DX003 (ip), vehicle: saline",2 of 6
same,survivor count,"T/C endpoint: mean survival time, dose: 35.0 mg/kg/injection, schedule: Q01DX009 (ip), vehicle: saline",0 of 6
same,survivor count,"T/C endpoint: mean survival time, dose: 50.0 mg/kg/injection, schedule: Q01DX001 (ip), vehicle: saline",2 of 6
same,survivor count,"T/C endpoint: mean survival time, dose: 55.0 mg/kg/injection, schedule: Q04DX003 (ip), vehicle: saline",2 of 6
same,survivor count,"T/C endpoint: mean survival time, dose: 80.0 mg/kg/injection, schedule: Q04DX003 (ip), vehicle: saline",0 of 6
same,survivor count,[1],0 of 6
same,survivor count,"T/C endpoint: mean survival time, dose: 100.0 mg/kg/injection, schedule: Q04DX003 (ip), vehicle: carboxymethylcellulose (CMC)",6 of 6
same,survivor count,[2],0 of 6
same,survivor count,[3],0 of 6
same,survivor count,[4],0 of 6
same,survivor count,[5],0 of 6
CC[N+]([O-])(CC)CCNc1ccc(CO)c2sc3ccccc3c(=O)c12,survivor count,"T/C endpoint: mean survival time, dose: 200.0 mg/kg/injection, schedule: Q01DX009 (ip), vehicle: saline",6 of 6
same,survivor count,"T/C endpoint: mean survival time, dose: 400.0 mg/kg/injection, schedule: Q01DX009 (ip), vehicle: saline",6 of 6
CN1CCC(C[CH2][Sn]([c]2ccccc2)([c]2ccccc2)[c]2ccccc2)CC1,survivor count,"T/C endpoint: mean survival time, dose: 50.0 mg/kg/injection, schedule: Q04DX002 (ip), vehicle: saline with Tween-80",2 of 3
same,survivor count,[6],0 of 3 and 2 of 3
same,survivor count,[7],0 of 3
same,survivor count,[8],0 of 3
OC[CH2][Hg][Cl],survivor count,"T/C endpoint: mean survival time, dose: 6.25 mg/kg/injection, schedule: Q01DX009 (ip), vehicle: saline",4 of 6
same,survivor count,[6],0 of 3
same,survivor count,[7],0 of 3
same,survivor count,[8],0 of 3
COS(=O)(=O)CCCCCC[N+](C)(C)C,survivor count,[4],2 of 4
CC(C)(C)SCC(NC(=O)OCc1ccccc1)C(=O)O (configuration not stated),survivor count,[9],3 of 6
OC(COc1ccc(Cl)cc1)COc1ccc(Cl)cc1,survivor count,[10],3 of 3
same,survivor count,"T/C endpoint: mean survival time, dose: 400.0 mg/kg/injection, schedule: Q01DX001 (ip), vehicle: saline with Tween-80",3 of 3
O=C(O)C(C(=O)O)C(=O)O,survivor count,[11],1 of 6
C(=C/[PH+](c1ccccc1)c1ccccc1)/[PH+](c1ccccc1)c1ccccc1.C(=C/[PH+](c1ccccc1)c1ccccc1)/[PH+](c1ccccc1)c1ccccc1.[O-][Cl+3]([O-])([O-])O.[Rh],survivor count,[10],3 of 3
CCCCOP(=O)(CCCC)OCCCC,survivor count,[12],6 of 6
same,survivor count,[13],0 of 6
O=C1NC(=O)C2(CCc3ccc(N(CCCl)CCCl)cc32)N1 (configuration not stated),survivor count,"T/C endpoint: median survival time, dose: 200.0 mg/kg/injection, schedule: Q01DX009 (ip), vehicle: Klucel (hydroxypropylcellulose) (HPC)",5 of 6
same,survivor count,"T/C endpoint: median survival time, dose: 400.0 mg/kg/injection, schedule: Q01DX009 (ip), vehicle: Klucel (hydroxypropylcellulose) (HPC)",4 of 6
O=C(NNC(=S)NC1CC2C=CC1C2)c1cccnc1 (configuration not stated),survivor count,"T/C endpoint: mean survival time, dose: 400.0 mg/kg/injection, schedule: Q01DX009 (ip), vehicle: Klucel (hydroxypropylcellulose) (HPC)",0 of 6
Oc1ccc2ccccc2c1N=Nc1cc[c]([Hg][Cl])cc1,survivor count,"T/C endpoint: mean survival time, dose: 80.0 mg/kg/injection, schedule: Q01DX001 (ip), vehicle: saline",0 of 4
same,survivor count,[1],0 of 4
same,survivor count,[2],0 of 4
same,survivor count,[4],0 of 4
CN(C)C(=O)C1(c2ccc(Cl)cc2)CCN(CCCC(=O)c2ccc(F)cc2)CC1,survivor count,[5],4 of 4
OC1c2ccccc2-c2ccc(Cl)cc21 (configuration not stated),survivor count,"T/C endpoint: mean survival time, dose: 200.0 mg/kg/injection, schedule: Q01DX009 (ip), vehicle: saline with Tween-80",5 of 6
same,survivor count,"T/C endpoint: mean survival time, dose: 400.0 mg/kg/injection, schedule: Q01DX009 (ip), vehicle: saline with Tween-80",3 of 6
CCCCNC(=O)C1C2CC3OC(=O)C1C3C2 (configuration not stated),survivor count,"T/C endpoint: mean survival time, dose: 100.0 mg/kg/injection, schedule: Q04DX003 (ip), vehicle: saline",3 of 4
same,survivor count,"T/C endpoint: mean survival time, dose: 200.0 mg/kg/injection, schedule: Q04DX003 (ip), vehicle: saline",0 of 4
same,survivor count,"T/C endpoint: mean survival time, dose: 400.0 mg/kg/injection, schedule: Q04DX003 (ip), vehicle: saline",0 of 4
CO[C@@H]([CH2][Hg][S]C#N)[C@@H]([CH2][Hg][S]C#N)OC,survivor count,"T/C endpoint: mean survival time, dose: 6.25 mg/kg/injection, schedule: Q04DX003 (ip), vehicle: saline sonified",6 of 6
same,survivor count,"T/C endpoint: mean survival time, dose: 100.0 mg/kg/injection, schedule: Q04DX003 (ip), vehicle: Klucel (hydroxypropylcellulose) (HPC)",0 of 6
same,survivor count,[3],0 of 6
same,survivor count,[5],0 of 6
CCCC(=O)NC(=S)Nc1ccccc1,survivor count,"T/C endpoint: mean survival time, dose: 150.0 mg/kg/injection, schedule: Q01DX001 (ip), vehicle: carboxymethylcellulose (CMC)",2 of 6
same,survivor count,"T/C endpoint: mean survival time, dose: 300.0 mg/kg/injection, schedule: Q01DX001 (ip), vehicle: carboxymethylcellulose (CMC)",0 of 6
CC(C)NCCNc1ccnc2cc(Cl)ccc12,survivor count,"T/C endpoint: mean survival time, dose: 75.0 mg/kg/injection, schedule: Q01DX001 (ip), vehicle: saline",2 of 6
same,survivor count,"T/C endpoint: mean survival time, dose: 150.0 mg/kg/injection, schedule: Q01DX001 (ip), vehicle: saline",0 of 6
same,survivor count,[11],0 of 6
O=C(COc1ccc(Cl)cc1)Nc1ccc(Cl)cc1,survivor count,[9],5 of 6
CCCCC(CC)C1N(C)CCCN1C (configuration not stated),survivor count,[14],0 of 6
CC1=C2CCCC(=O)C2(C)CCC1=O (configuration not stated),survivor count,"T/C endpoint: mean survival time, dose: 400.0 mg/kg/injection, schedule: Q04DX002 (ip), vehicle: Klucel (hydroxypropylcellulose) (HPC)",2 of 3
O=C(Nc1cccc(C2=NCCN2)c1)c1ccc(N=Nc2ccc(C(=O)Nc3cccc(C4=NCCN4)c3)cc2)cc1,survivor count,"T/C endpoint: mean survival time, dose: 372.0 mg/kg/injection, schedule: Q01DX Z (ip), vehicle: water",4 of 6
[Cl][Sn]([Cl])([c]1ccccc1)[c]1ccccc1.c1ccc(-c2nnc(-c3ccccn3)nc2-c2ccccc2)cc1,survivor count,"T/C endpoint: mean survival time, dose: 25.0 mg/kg/injection, schedule: Q04DX003 (ip), vehicle: saline with Tween-80",1 of 6
same,survivor count,[12],0 of 4
same,survivor count,[13],0 of 4
same,survivor count,[14],0 of 4
